Reference: article doi:10.1101/2022.03.20.485012
These are yes or no findings as the source states them, for the method shown. Binding seen in cells or lysates may run through a third protein. These calls come from enrichment with a bait or labelling near it, and not all partners need be listed. Sequences can lack the tags named with a protein.

T1: FLAG-STING (mouse STING) (mouse) (UniProt Q3TBT3)
T1 sequence: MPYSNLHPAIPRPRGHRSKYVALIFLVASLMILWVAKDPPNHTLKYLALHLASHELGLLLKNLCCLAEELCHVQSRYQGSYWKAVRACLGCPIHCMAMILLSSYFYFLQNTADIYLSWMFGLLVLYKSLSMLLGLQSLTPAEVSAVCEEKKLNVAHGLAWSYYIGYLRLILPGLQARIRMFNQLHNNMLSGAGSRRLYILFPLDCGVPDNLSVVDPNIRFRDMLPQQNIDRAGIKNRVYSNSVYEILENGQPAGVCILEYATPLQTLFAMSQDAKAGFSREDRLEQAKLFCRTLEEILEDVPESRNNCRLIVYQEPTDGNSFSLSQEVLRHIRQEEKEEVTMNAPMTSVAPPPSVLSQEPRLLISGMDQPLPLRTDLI


Target: T1, FLAG-STING (mouse STING) (mouse)
Experiment: affinity purification with mass spectrometry

| binding | Binder |
| --- | --- |
| binds | Vps4b (protein, UniProt P46467 1-444) MASTNTNLQKAIDLASKAAQEDKAGNYEEALQLYQHAVQYFLHVVKYEAQGDKAKQSIRAKCTEYLDRAEKLKEYLKKKEKKPQKPVKEEQSGPVDEKGNDSDGEAESDDPEKKKLQNQLQGAIVIERPNVKWSDVAGLEGAKEALKEAVILPIKFPHLFTGKRTPWRGILLFGPPGTGKSYLAKAVATEANNSTFFSISSSDLVSKWLGESEKLVKNLFQLARENKPSIIFIDEIDSLCGSRSENESEAARRIKTEFLVQMQGVGVDNDGILVLGATNIPWVLDSAIRRRFEKRIYIPLPEAHARAAMFRLHLGSTQNSLTEADFQELGRKTDGYSGADISIIVRDALMQPVRKVQSATHFKKVRGPSRADPNCIVNDLLTPCSPGDPGAIEMTWMDVPGDKLLEPVVSMWDMLRSLSSTKPTVNEQDLLKLKKFTEDFGQEG |
| binds | Tsg101 (protein, UniProt Q61187 1-391) MAVSESQLKKMMSKYKYRDLTVRQTVNVIAMYKDLKPVLDSYVFNDGSSRELVNLTGTIPVRYRGNIYNIPICLWLLDTYPYNPPICFVKPTSSMTIKTGKHVDANGKIYLPYLHDWKHPRSELLELIQIMIVIFGEEPPVFSRPTVSASYPPYTATGPPNTSYMPGMPSGISAYPSGYPPNPSGYPGCPYPPAGPYPATTSSQYPSQPPVTTVGPSRDGTISEDTIRASLISAVSDKLRWRMKEEMDGAQAELNALKRTEEDLKKGHQKLEEMVTRLDQEVAEVDKNIELLKKKDEELSSALEKMENQSENNDIDEVIIPTAPLYKQILNLYAEENAIEDTIFYLGEALRRGVIDLDVFLKHVRLLSRKQFQLRALMQKARKTAGLSDLY |
| binds | Vps4a (protein, UniProt Q8VEJ9 1-437) MTTSTLQKAIDLVTKATEEDKAKNYEEALRLYQHAVEYFLHAIKYEAHSDKAKESIRAKCMQYLDRAEKLKDYLRNKEKHGKKPVKENQSEGKGSDSDSEGDNPEKKKLQEQLMGAVVMEKPNIRWNDVAGLEGAKEALKEAVILPIKFPHLFTGKRTPWRGILLFGPPGTGKSYLAKAVATEANNSTFFSVSSSDLMSKWLGESEKLVKNLFELARQHKPSIIFIDEVDSLCGSRNENESEAARRIKTEFLVQMQGVGNNNDGTLVLGATNIPWVLDSAIRRRFEKRIYIPLPEEAARAQMFRLHLGSTPHNLTDANIHELARKTEGYSGADISIIVRDSLMQPVRKVQSATHFKKVCGPSRTNPSVMIDDLLTPCSPGDPGAIEMTWMDVPGDKLLEPVVCMSDMLRSLATTRPTVNADDLLKVKKFSEDFGQES |
